These are yes or no findings as the source states them, for the method shown. In cells and extracts the contact can be indirect. Binding calls can cover weak binding; strength is not graded here.
Biological target: T1, ECT2^WT-mCherry (Arabidopsis thaliana) (UniProt Q9LJE5)
T1 sequence: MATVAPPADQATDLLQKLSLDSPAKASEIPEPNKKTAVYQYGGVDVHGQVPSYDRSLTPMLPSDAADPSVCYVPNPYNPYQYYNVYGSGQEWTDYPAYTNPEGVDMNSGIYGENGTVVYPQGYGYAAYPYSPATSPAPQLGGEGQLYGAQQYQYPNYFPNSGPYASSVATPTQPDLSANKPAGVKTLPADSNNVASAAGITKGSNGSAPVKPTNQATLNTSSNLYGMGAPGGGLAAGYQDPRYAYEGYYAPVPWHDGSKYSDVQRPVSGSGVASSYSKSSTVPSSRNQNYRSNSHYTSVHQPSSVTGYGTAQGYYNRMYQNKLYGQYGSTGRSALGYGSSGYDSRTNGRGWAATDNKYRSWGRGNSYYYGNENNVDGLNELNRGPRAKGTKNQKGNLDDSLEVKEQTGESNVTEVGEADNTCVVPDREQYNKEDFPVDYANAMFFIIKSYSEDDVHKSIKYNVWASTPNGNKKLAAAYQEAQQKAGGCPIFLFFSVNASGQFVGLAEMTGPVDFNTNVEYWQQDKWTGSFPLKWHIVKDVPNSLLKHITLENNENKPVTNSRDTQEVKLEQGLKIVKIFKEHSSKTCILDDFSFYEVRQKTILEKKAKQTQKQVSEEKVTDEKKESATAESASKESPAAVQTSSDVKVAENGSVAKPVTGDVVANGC
Assay: co-IP

Substance: ALBA1
- binding: binds
